Test results from patent US8202507B2, “Assay for vitamin B12 absorption and method of making labeled vitamin B12” (The Regents of the University of California, priority 2004, dated 2012).
At least one read-out could not be matched to a standard name with certainty.

Assay: AMS assay of B12 absorption in a normal human subject after oral ^14C-vitamin B12
Format: in vivo
Details: single 1.5 μg (2.2 KBq) oral dose in water, healthy male, plasma by AMS
Procedure: This example describes the use of this labeled B12 and AMS to assay B12 absorption in a normal human subject. A single 1.5 μg dose of the ^14C-vitamin B12 was administered orally and detected by AMS as it appeared in the bloodstream.
The subject was a healthy person with a body mass index (BMI) of 27.5. The subject began complete fecal and urine collection 24 h in advance of the dose and continued complete 24 h collections until Day 7. On the day of dose administration, the subject was fitted with an intravenous catheter in a forearm vein. Blood was drawn into 7 mL tubes containing EDTA. A baseline blood sample was drawn (7 AM) and the dose consumed that corresponded to 2.2 KBq of radioactivity (1.5 μg) was administered in 50 mL of drinking water in a paper cup. The volunteer was allowed to have water ad libitum thereafter, with a light meal taken 2 hr postdose. Blood samples were drawn at frequent intervals for the first 15 hr post-dose and daily thereafter. Meals were controlled for time and content on the dose administration day.
AMS analysis. Aliquots of plasma (30 μL), urine (80 μL) and a stool slurry (80 μL) were dried, combusted to CO2, and reduced to filamentous carbon using known procedures. No other processing preceded the graphization step, thus quantitative recovery was ensured. […]

## ^14C-cyanocobalamin [^14C-vitamin B12]
  time of peak (Cmax) of circulating ^14C-B12 in plasma: seven
